# In the supplement of paper PMC12067093, “Discovery and optimisation of a covalent ligand for TRIM25 and its application to targeted protein ubiquitination” (Chemical Science, 2025):
# Protein sequences, listed by entry. Tags and fused reporters are not part of them. Lines headed by an entry give the natural chain unless they say otherwise; changes in a name come on top.
# UniProt Q96IR7: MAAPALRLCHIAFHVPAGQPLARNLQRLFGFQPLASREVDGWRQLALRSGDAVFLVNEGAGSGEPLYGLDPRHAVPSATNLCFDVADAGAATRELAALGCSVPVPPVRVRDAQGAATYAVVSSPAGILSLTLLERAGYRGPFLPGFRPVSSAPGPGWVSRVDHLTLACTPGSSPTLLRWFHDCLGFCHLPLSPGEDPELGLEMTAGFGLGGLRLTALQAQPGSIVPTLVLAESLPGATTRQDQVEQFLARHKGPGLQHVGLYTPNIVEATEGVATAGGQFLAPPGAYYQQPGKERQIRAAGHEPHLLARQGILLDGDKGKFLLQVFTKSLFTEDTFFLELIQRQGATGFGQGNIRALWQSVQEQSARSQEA
# UniProt Q00839, whole entry, looked up: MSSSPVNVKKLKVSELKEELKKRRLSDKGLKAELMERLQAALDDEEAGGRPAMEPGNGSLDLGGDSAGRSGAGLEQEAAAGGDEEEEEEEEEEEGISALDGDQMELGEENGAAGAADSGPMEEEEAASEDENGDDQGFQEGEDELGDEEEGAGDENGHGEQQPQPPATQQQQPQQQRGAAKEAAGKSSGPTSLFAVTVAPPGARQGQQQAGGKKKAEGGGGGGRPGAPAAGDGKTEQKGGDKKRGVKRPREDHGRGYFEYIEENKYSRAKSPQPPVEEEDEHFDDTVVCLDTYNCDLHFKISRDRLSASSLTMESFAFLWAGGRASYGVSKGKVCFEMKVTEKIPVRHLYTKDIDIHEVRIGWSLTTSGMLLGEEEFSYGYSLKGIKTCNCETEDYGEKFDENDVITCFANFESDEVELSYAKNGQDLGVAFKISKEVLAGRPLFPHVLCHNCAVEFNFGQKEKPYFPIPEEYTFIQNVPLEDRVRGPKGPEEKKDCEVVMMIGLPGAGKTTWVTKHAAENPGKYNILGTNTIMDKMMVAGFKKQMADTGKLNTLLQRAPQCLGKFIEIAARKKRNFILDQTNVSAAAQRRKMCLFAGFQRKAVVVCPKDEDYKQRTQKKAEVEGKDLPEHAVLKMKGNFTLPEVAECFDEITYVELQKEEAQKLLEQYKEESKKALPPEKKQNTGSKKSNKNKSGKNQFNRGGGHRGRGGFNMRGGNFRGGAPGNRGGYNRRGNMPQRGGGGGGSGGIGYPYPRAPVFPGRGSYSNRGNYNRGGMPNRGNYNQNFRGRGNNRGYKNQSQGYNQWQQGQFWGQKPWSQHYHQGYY
# UniProt Q53GQ0: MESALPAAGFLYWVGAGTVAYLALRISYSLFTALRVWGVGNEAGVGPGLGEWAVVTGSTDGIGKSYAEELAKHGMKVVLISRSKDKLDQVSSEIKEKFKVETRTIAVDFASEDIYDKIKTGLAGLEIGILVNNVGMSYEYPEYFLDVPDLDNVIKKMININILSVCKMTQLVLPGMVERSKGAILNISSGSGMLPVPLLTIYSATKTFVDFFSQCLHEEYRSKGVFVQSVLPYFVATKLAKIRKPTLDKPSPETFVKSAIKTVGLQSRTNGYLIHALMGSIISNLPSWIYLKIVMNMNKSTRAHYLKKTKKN
# UniProt P14866: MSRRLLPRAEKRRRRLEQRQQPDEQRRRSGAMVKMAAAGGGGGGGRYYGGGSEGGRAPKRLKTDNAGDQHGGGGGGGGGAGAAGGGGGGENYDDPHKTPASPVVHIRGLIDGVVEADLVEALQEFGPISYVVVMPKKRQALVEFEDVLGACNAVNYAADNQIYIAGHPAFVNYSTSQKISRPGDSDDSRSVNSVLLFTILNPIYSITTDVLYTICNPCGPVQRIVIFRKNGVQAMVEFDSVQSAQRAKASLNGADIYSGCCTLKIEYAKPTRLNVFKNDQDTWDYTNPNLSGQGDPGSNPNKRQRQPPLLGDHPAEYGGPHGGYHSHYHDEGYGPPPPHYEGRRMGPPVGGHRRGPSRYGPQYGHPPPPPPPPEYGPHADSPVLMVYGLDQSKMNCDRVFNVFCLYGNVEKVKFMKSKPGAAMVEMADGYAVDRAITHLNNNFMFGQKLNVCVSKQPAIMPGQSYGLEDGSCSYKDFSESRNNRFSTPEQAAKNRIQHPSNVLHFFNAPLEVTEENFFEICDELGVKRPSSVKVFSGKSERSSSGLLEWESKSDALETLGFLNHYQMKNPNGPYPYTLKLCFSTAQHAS
# UniProt P08238, whole entry, looked up: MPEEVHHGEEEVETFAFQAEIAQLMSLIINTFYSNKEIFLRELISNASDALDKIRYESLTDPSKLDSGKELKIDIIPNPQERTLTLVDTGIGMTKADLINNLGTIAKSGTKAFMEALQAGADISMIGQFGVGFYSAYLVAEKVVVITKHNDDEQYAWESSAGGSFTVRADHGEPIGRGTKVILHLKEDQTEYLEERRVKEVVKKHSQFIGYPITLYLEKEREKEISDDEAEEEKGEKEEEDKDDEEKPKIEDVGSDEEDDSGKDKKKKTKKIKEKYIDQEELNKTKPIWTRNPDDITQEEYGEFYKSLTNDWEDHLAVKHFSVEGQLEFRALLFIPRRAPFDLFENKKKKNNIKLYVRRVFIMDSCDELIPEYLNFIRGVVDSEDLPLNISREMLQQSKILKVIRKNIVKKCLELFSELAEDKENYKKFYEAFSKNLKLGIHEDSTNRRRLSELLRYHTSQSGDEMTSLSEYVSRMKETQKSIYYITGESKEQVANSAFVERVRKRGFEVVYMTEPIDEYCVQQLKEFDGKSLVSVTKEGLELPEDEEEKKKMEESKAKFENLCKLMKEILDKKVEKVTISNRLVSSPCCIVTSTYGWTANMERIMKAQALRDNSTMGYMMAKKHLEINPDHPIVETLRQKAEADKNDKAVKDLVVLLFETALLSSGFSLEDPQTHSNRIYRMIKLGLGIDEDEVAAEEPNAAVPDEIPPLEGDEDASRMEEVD
# UniProt Q92598: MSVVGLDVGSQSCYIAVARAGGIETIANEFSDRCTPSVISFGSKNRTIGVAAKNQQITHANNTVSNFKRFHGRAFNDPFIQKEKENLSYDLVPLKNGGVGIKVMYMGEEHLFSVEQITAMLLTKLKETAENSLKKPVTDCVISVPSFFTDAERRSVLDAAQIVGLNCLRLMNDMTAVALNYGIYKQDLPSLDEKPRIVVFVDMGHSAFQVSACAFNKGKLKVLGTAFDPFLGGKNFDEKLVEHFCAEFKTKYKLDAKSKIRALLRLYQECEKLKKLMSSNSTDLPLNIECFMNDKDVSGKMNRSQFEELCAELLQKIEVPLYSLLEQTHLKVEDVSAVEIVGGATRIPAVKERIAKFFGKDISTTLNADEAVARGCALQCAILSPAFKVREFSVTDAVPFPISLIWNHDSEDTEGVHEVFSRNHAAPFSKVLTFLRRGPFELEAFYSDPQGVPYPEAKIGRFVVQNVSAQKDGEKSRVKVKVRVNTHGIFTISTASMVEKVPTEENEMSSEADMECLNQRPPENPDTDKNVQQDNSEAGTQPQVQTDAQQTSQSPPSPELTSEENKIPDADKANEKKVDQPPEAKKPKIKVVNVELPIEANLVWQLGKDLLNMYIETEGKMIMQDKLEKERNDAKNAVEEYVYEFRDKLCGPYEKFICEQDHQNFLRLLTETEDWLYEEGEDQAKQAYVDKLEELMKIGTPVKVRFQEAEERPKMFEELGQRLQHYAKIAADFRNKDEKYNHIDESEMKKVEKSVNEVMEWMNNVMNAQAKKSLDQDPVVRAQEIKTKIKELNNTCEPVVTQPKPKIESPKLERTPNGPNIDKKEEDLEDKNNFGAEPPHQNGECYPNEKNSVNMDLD
# UniProt O95757: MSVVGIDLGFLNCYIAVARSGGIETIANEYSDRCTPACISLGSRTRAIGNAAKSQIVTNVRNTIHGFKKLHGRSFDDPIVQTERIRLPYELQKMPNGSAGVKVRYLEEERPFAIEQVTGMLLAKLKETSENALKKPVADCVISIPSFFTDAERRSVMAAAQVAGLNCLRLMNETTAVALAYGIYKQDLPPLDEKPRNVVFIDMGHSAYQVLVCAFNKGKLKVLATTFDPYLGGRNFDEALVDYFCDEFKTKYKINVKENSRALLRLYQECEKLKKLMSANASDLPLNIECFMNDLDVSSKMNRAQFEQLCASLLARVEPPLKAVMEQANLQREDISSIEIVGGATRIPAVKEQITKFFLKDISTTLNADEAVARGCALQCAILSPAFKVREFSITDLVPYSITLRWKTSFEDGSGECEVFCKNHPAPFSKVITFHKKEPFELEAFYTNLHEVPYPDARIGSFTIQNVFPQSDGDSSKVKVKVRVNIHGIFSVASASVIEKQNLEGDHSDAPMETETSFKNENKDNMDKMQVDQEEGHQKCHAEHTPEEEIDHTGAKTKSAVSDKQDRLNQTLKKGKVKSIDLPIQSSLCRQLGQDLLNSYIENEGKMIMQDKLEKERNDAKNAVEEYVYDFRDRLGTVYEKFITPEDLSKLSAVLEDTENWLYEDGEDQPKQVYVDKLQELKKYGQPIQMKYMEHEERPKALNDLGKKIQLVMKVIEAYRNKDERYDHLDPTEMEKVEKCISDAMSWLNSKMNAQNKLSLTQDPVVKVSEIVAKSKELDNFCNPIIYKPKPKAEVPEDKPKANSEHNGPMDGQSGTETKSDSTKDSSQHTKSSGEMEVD
# UniProt Q9NQG7: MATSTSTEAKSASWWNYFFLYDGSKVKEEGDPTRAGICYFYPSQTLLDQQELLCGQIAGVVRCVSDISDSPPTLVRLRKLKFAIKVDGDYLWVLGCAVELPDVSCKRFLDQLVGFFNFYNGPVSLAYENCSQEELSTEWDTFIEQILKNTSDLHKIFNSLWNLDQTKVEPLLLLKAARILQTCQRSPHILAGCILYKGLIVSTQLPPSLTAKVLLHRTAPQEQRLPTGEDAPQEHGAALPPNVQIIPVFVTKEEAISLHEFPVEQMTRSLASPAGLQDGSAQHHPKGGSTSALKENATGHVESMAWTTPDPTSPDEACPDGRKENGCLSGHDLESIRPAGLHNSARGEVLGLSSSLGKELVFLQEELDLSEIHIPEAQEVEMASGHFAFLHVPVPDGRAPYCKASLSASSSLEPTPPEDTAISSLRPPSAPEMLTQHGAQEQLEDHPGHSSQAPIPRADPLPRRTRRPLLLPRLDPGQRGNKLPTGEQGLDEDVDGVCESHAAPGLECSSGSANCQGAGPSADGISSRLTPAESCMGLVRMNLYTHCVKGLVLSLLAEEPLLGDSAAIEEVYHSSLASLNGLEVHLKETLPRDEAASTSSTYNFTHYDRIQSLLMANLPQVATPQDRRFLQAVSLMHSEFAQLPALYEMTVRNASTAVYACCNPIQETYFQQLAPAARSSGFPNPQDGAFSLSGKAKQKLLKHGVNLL
# UniProt Q58FG1, whole entry: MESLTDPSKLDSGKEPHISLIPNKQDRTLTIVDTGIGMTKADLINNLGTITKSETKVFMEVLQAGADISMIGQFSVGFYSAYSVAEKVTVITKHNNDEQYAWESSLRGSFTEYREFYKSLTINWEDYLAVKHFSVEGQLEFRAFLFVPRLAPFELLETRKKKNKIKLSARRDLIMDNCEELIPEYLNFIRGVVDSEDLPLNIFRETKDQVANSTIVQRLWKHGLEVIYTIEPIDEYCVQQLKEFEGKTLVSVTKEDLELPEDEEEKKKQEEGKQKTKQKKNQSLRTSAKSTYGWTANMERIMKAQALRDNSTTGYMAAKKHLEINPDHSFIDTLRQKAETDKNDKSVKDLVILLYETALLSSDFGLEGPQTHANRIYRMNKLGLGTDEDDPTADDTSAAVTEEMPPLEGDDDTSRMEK
# UniProt P34932: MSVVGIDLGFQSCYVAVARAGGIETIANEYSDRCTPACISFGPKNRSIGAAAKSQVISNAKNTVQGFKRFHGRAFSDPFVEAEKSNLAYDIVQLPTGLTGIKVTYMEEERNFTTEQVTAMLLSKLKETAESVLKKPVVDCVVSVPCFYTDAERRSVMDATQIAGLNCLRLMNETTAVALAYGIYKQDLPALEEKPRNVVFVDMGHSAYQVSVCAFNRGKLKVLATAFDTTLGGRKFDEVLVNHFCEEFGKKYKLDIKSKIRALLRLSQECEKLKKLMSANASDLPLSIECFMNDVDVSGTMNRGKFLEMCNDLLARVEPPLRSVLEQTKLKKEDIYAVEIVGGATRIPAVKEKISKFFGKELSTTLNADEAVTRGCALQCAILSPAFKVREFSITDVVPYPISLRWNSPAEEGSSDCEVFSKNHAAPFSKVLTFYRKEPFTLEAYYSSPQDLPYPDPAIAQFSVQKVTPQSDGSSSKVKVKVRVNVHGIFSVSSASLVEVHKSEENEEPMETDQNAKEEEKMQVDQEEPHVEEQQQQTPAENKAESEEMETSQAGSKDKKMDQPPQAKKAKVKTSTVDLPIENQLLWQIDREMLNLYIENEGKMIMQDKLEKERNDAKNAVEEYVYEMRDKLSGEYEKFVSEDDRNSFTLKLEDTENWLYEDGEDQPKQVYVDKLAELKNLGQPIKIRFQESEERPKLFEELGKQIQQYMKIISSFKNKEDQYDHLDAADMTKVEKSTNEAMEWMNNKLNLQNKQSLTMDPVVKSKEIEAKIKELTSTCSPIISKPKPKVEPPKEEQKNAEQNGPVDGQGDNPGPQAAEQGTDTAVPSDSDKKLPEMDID
# The list shows a part of the results.
# Compound: Cc1cc(ccc1-c1ccccc1)C(=O)N1CCCN(CC1)C(=O)CCl [compound 10]
# Assay: probe-labelled cysteine peptide fold change vs DMSO (competition) (log2 fold change); higher = less target engagement (more negative = stronger competition)
# Settings: THP-1, incubation time: 4 h
# 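Note: competitive profiling in live THP-1 cells: cysteine peptides tagged with an iodoacetamide desthiobiotin (IA-DTB) probe, intensity after compound treatment relative to DMSO-treated cells.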
Target,probe-labelled cysteine peptide fold change (10 µM),probe-labelled cysteine peptide fold change (50 µM)
HNRNPUL1_Q9BUJ2_532_AIVICPTDEDLK (UniProt Q9BUJ2),-0.122,0.0371
HPDL_Q96IR7_168_VDHLTLACTPGSSPTLLR (UniProt Q96IR7),-0.032,-0.309
HNRNPU_Q00839_391_TCNCETEDYGEK (UniProt Q00839),0.325,0.595
HSD17B12_Q53GQ0_215_TFVDFFSQCLHEEYR (UniProt Q53GQ0),0.029,0.278
HNRNPL_P14866_260_ASLNGADIYSGCCTLK (UniProt P14866),0.134,-0.186
HSP90AB1_P08238_521_GFEVVYMTEPIDEYCVQQLK (UniProt P08238),-0.0263,
HSPH1_Q92598_290_LMSSNSTDLPLNIECFMNDK (UniProt Q92598),-0.144,0.166
HSP90AB1_P08238_521_RGFEVVYMTEPIDEYCVQQLK (UniProt P08238),-0.0663,-0.262
HNRNPD_Q14103_226_GFCFITFK (UniProt Q14103),0.23,0.223
HPS3_Q969F9_398_CSAAAAREEDPYMDTTLK (UniProt Q969F9),-0.0978,-0.368
HSF1_Q00613_103_VVHIEQGGLVKPERDDTEFQHPCFLR (UniProt Q00613),-0.0713,0.0998
HNRNPAB_Q99729_224_KFHTVSGSKCEIK (UniProt Q99729),-0.175,-0.448
HSPA4L_O95757_417+421_TSFEDGSGECEVFCK (UniProt O95757),-0.216,-0.39
HPS4_Q9NQG7_63_CVSDISDSPPTLVR (UniProt Q9NQG7),-0.0973,0.014
HNRNPH1_P31943_22_GLPWSCSADEVQR (UniProt P31943),0.101,0.116
HP_P00738_340_SPVGVQPILNEHTFCAGMSK (UniProt P00738),-0.196,0.49
HNRNPU_Q00839_497_DCEVVMMIGLPGAGK (UniProt Q00839),0.0826,0.0394
HNRNPL_P14866_404_VFNVFCLYGNVEK (UniProt P14866),0.0841,0.0754
HSP90AA4P_Q58FG1_178_DLIMDNCEELIPEYLNFIR (UniProt Q58FG1),0.0768,0.401

Target,probe-labelled cysteine peptide fold change (10 µM),probe-labelled cysteine peptide fold change (50 µM)
HOXA11_P31270_82_GNLAHCYSAEELVHR (UniProt P31270),0.0231,0.0767
HSPA4_P34932_270_LSQECEK (UniProt P34932),-0.0609,-0.0369
HSD17B12_Q53GQ0_166_KMININILSVCK (UniProt Q53GQ0),-0.234,-0.553
HMOX2_P30519_265_CPFYAAEQDK (UniProt P30519),-0.451,-2.31
HNRNPA2B1_P22626_50_LTDCVVMRDPASK (UniProt P22626),0.0621,0.169
HUS1_O60921_12_IVDGACLNHFTR (UniProt O60921),0.0355,0.0644
HNRNPU_Q00839_648_GNFTLPEVAECFDEITYVELQK (UniProt Q00839),0.16,0.0148
HSP90AA1_P07900_598_LVTSPCCIVTSTYGWTANMER (UniProt P07900),-0.00946,0.102
HSPH1_Q92598_650_LCGPYEK (UniProt Q92598),0.134,0.0317
HNRNPR_O43390_292_GFCFLEYEDHK (UniProt O43390),0.0419,0.0189
HNRNPDL_O14979_177_FGEVVDCTIKTDPVTGR (UniProt O14979),-0.0962,-0.952
HSPA4_P34932_245_KFDEVLVNHFCEEFGK (UniProt P34932),0.00761,-0.00421
HSPA4L_O95757_421_TSFEDGSGECEVFCK (UniProt O95757),0.0372,-0.257
HNRNPUL2_Q1KMD3_452_TIEECEVILMVGLPGSGK (UniProt Q1KMD3),0.143,0.242
HSPA4L_O95757_140_KPVADCVISIPSFFTDAERR (UniProt O95757),0.0631,0.17
HNMT_P50135_31_FLNHSTEHQCMQEFMDKK (UniProt P50135),-0.174,-0.501
HSP90AA1_P07900_374_VFIMDNCEELIPEYLNFIR (UniProt P07900),0.07,0.391
HNRNPUL2_Q1KMD3_408_NCVVELNFGQKEEPFFPPPEEFVFIHAVPVEER (UniProt Q1KMD3),-0.0678,-0.142
HSD17B4_P51659_277_KICDFENASKPQSIQESTGSIIEVLSK (UniProt P51659),-0.047,-0.232

# Single records, from the list above:
# HSP90AB1_P08238_521_GFEVVYMTEPIDEYCVQQLK (UniProt P08238) reads probe-labelled cysteine peptide fold change (10 µM): -0.0263
# HSPA4_P34932_245_KFDEVLVNHFCEEFGK (UniProt P34932) reads probe-labelled cysteine peptide fold change (10 µM): 0.00761; probe-labelled cysteine peptide fold change (50 µM): -0.00421
